Results deposited as PubChem BioAssay AID1259424 (University of Nebraska Medical Center, 2018)

- Test: 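Find knockdowns that reproduce the expression shifts seen after KSR1 loss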 (primary screen)
- System: human HCT116 colon cancer cells
- Reagents: siRNA pool against human genes, 50 nM
- Read-out: 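Log2 levels of six mRNAs (branched-DNA multiplex), adjusted by two reference genes and the non-targeting median, then scored against the average KSR1 knockdown pattern as Pearson r and euclidean distance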
- Direction: mean correlation with KSR1 profile and KSR1 correlation: higher = expression change more like KSR1 knockdown; mean distance from KSR1 profile: higher = expression change less like KSR1 knockdown
The deposit covers about 14,000 reagents; shown is an unselected part. 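Higher correlation or smaller distance means closer resemblance to KSR1 loss; control wells, including KSR1 knockdowns, recur on many plates.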 Reagents against one gene are numbered here. Not given: the time to read-out.

no.	gene	reagent	mean correlation with KSR1 profile	mean distance from KSR1 profile	KSR1 correlation, replicate 1	KSR1 correlation, replicate 2	KSR1 correlation, replicate 3
1	SRPK1	1	0.182	2.18	0.472	-0.295	-0.17
2	SEMA5A	1	-0.00132	2.74	0.0729	0.302	0.126
3	ATOSA	1	-0.648	5.2	-0.516	-0.582	-0.586
4	PCSK2	1	0.423	2.78	0.61	0.562	-0.0363
5	MYL7	1	-0.626	2.76	-0.675	-0.552	-0.666
6	C4B	1	-0.289	3.01	-0.165	-0.56	-0.179
7	DENND2B	1	0.82	1.36	0.973	0.56	0.795
8	ARCN1	1	-0.639	5.97	-0.565	-0.521	-0.623
9	SPAG11B	1	0.171	1.66	0.304	0.204	-0.098
10	WASHC5	1	-0.35	1.83	-0.335	-0.669	0.0886
11	PPFIA2	1	-0.0583	2.09	-0.244	0.155	-0.346
12	ZDHHC17	1	-0.387	2.35	-0.334	-0.439	-0.263
13	CHMP2A	1	-0.786	4.14	-0.746	-0.666	-0.674
14	ABHD8	1	-0.488	2.11	-0.392	0.0889	-0.00812
15	MFSD1	1	0.588	0.678	-0.286	0.268	0.373
16	IFIT2	1	-0.335	5.32	-0.423	-0.332	-0.389
17	CNOT7	1	-0.185	1.39	-0.0705	0.411	-0.59
18	EVC	1	-0.809	1.77	-0.547	-0.915	-0.829
19	GCDH	1	-0.267	1.73	-0.188	-0.418	-0.244
20	VPS41	1	-0.63	1.91	-0.867	-0.801	-0.502
21	ARID5A	1	0.0756	1.1	0.223	0.12	-0.0428
22	DDX60	1	0.356	1.7	0.349	0.301	0.256
23	KMT5C	1	-0.719	3.59	-0.674	-0.719	-0.758
24	HMGN3	1	-0.471	1.32	-0.324	-0.459	-0.493
25	FMOD	1	-0.26	2.95	-0.0549	-0.103	-0.458
26	TLX1	1	0.115	1.35	0.499	0.521	-0.362
27	MEAK7	1	-0.557	4.45	-0.518	-0.554	-0.577
28	CCR8	1	0.744	1.18	0.578	0.846	0.706
29	HSPA1B	1	0.648	1.37	0.745	0.657	0.457
30	SERPINB13	1	-0.547	3	-0.531	-0.473	-0.609
31	PTGER3	1	-0.577	4.04	0.128	-0.469	-0.374
32	BRSK2	1	0.705	0.832	0.793	0.778	-0.00938
33	PMP2	1	0.15	2.23	0.0729	0.0452	0.0878
34	UBXN4	1	-0.146	1.37	-0.187	-0.199	-0.0177
35	IFIT3	1	-0.513	2.34	-0.442	-0.761	-0.588
36	PYCR2	1	0.0299	2	0.00746	0.00848	-0.0317
37	CASP14	1	-0.45	3.26	-0.584	-0.307	-0.0704
38	ARL2BP	1	0.0729	2.18	0.425	-0.163	-0.104
39	TMEM9B	1	-0.233	4.3	-0.256	-0.313	-0.331
40	LGALS3	1	-0.428	1.57	0.0437	-0.725	-0.581
41	LGALS3	2	-0.152	1.82	-0.235	-0.355	-0.305
42	NRP2	1	-0.57	2.39	-0.78	-0.214	-0.661
43	DFFB	1	-0.328	2.02	-0.36	-0.373	-0.215
44	CHRNA6	1	-0.442	1.51	-0.15	-0.601	-0.535
45	CAPNS2	1	0.275	2.61	0.132	0.183	0.405
46	MRPS9	1	0.206	1.8	-0.0816	-0.079	0.267
47	FAM3A	1	-0.018	1.73	0.142	-0.0219	-0.169
48	AGTPBP1	1	-0.0871	1.5	0.283	-0.09	-0.187
49	HELZ	1	-0.462	3.57	-0.222	-0.66	-0.356
50	SCD5	1	0.684	1.31	0.712	0.764	0.612

An excerpt from the list above, for reference:
no.	gene	reagent	mean correlation with KSR1 profile	mean distance from KSR1 profile	KSR1 correlation, replicate 1	KSR1 correlation, replicate 2	KSR1 correlation, replicate 3
45	CAPNS2	1	0.275	2.61	0.132	0.183	0.405
46	MRPS9	1	0.206	1.8	-0.0816	-0.079	0.267
47	FAM3A	1	-0.018	1.73	0.142	-0.0219	-0.169
48	AGTPBP1	1	-0.0871	1.5	0.283	-0.09	-0.187
